In PMC4223716:
No constants are given. Whether binding was seen depends on the method and setting. In cells and extracts the contact can be indirect. Some entries that bind do so weakly or less than the wild type.

Biological target: T1, vascular endothelial cadherin (human (endogenous in HUVEC)), P33151
T1 chain: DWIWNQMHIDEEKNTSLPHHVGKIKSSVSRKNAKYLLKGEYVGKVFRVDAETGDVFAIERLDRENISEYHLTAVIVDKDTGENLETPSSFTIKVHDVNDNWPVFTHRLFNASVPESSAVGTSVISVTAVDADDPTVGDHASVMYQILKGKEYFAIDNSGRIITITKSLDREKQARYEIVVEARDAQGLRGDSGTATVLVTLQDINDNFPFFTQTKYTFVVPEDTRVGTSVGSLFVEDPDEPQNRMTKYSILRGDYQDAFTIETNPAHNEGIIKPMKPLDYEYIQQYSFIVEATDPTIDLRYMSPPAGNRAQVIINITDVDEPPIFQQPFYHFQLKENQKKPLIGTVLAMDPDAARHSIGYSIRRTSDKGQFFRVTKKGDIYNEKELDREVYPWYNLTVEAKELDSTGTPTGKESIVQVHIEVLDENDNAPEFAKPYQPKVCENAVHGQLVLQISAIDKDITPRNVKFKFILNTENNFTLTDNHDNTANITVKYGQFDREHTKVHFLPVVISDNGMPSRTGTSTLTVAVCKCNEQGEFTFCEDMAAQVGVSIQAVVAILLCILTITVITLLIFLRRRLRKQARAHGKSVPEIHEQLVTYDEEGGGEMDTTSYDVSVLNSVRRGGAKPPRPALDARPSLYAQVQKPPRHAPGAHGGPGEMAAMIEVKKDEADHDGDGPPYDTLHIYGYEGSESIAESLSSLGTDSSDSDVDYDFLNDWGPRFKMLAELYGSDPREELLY
Experiment: co-IP; VE-cad antibody immunoprecipitation from HUVEC RIPA lysates (overnight at 4°C, protein A-agarose), blot for β-catenin and VE-cad; mIgG as control; cells without high glucose; also cells overexpressing DN-PKC-α, -β or -δ (Figure 3D)
Details: remark: other sources report otherwise

binding: binds
B1: β-catenin, P35222 1-781 (protein)
chain: MATQADLMELDMAMEPDRKAAVSHWQQQSYLDSGIHSGATTTAPSLSGKGNPEEEDVDTSQVLYEWEQGFSQSFTQEQVADIDGQYAMTRAQRVRAAMFPETLDEGMQIPSTQFDAAHPTNVQRLAEPSQMLKHAVVNLINYQDDAELATRAIPELTKLLNDEDQVVVNKAAVMVHQLSKKEASRHAIMRSPQMVSAIVRTMQNTNDVETARCTAGTLHNLSHHREGLLAIFKSGGIPALVKMLGSPVDSVLFYAITTLHNLLLHQEGAKMAVRLAGGLQKMVALLNKTNVKFLAITTDCLQILAYGNQESKLIILASGGPQALVNIMRTYTYEKLLWTTSRVLKVLSVCSSNKPAIVEAGGMQALGLHLTDPSQRLVQNCLWTLRNLSDAATKQEGMEGLLGTLVQLLGSDDINVVTCAAGILSNLTCNNYKNKMMVCQVGGIEALVRTVLRAGDREDITEPAICALRHLTSRHQEAEMAQNAVRLHYGLPVVVKLLHPPSHWPLIKATVGLIRNLALCPANHAPLREQGAIPRLVQLLVRAHQDTQRRTSMGGTQQQFVEGVRMEEIVEGCTGALHILARDVHNRIVIRGLNTIPLFVQLLYSPIENIQRVAAGVLCELAQDKEAAEAIEAEGATAPLTELLHSRNEGVATYAAAVLFRMSEDKPQDYKKRLSVELTSSLFRTEPMAWNETADLGLDIGAQGEPLGYRQDDPSYRSFHSGGYGQDALGMDPMMEHEMGGHHPGADYPVDGLPDLGHAQDLMDGLPPGDSNQLAWFDTDL
